Data set [1] in a line: pH of pork during storage. As to conditions: pork at 4°C for 8 days; natto peptide 30, 60, 90 μg/ml, nisin 50 μg/ml, butyl paraben 100 μg/ml.
Data set [2] in a line: TVB‐N of pork during storage, Kjeldahl assay. Conditions: nisin 50 μg/ml or butyl paraben 100 μg/ml; day 8; pork at 4°C; triplicate.
Data set [3] can be described thus: TBARS assay of pork during storage (MDA content). As to conditions: nisin 50 μg/ml or butyl paraben 100 μg/ml; day 8; pork at 4°C; triplicate.

Regarding `CCCCOC(=O)c1ccc(O)cc1` [Butyl paraben], in data set [1], the “pH variation of pork during storage compared with control” value is “inhibited the increase in pH”. Further, the “TVB‐N value” in data set [2] amounted to 26.0. In addition, the “TBARS (MDA equivalents)” value in data set [3] is listed as 0.6 mg/100 g.
The like results for Nisin were, in that order, “obvious increase in pH”, 28.1 and 0.5 mg/100 g.
